Experimental data reported in PubChem BioAssay AID652054 (National Center for Advancing Translational Sciences (NCATS), 2013).
The campaign covered roughly 360,000 compounds. About 9,100 (2.5%) were called active. Inconclusive results, whose numbers are uncertain, are shown with a selection of clear calls. Cut-off read from the data, not from the text of the source: active = max response below about -50%; inconclusive = no clear call, values can overlap the other calls; inactive = above that.

Chains of the proteins cited; added tags and fusions are not shown.
UniProt P35462, whole entry, looked up: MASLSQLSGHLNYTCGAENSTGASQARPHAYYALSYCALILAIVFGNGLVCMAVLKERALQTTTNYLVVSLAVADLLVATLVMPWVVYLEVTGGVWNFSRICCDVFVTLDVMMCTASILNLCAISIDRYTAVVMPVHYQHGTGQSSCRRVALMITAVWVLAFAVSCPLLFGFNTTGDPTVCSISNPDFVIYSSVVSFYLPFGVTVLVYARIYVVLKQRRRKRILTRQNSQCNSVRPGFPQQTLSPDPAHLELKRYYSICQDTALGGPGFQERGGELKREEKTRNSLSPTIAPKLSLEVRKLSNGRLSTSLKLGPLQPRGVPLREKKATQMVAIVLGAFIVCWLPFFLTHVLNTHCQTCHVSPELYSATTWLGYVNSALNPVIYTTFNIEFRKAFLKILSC

Biological target: D(3) dopamine receptor (Homo sapiens) (UniProt P35462)
Assay: qHTS of D3 Dopamine Receptor Antagonist: qHTS
Conditions: D3R cells, DiscoveRx beta-arrestin luminescence, antagonist mode; stronger effect = lower value
Method in brief: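 Cells expressing the human receptor were seeded at 1500 cells/well, incubated overnight at 37 degrees C in 5% CO2, then exposed to library compounds with dopamine controls for 90 minutes at 37 degrees C before luminescent detection.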
% is set by controls: 0 for no effect and ±100 for the full control effect.

Max response, negative = inhibition, active:
Cc1ccccc1OCCCC(=O)NCc1ccco1 -123%
O=C1OC(c2ccccc2)=NC12CC2c1ccc(Cl)cc1 (centres undefined) -72.8%
Cc1ccc(C(c2nnnn2C(C)(C)C)N2CCN(C3CCCC3)CC2)cc1 (centres undefined) -91.9%
Cc1cc(=O)oc2cc(NC(=O)C3CC(=O)N(Cc4ccccc4)C3)ccc12 (centres undefined) -60.6%
Cc1oc(-c2ccc(Cl)cc2)nc1CSCC(=O)NC1CCN(Cc2ccccc2)CC1 -76.1%

Max response, negative = inhibition, inconclusive:
COc1ccc(-n2cnc3cc(C(=O)NC4CCCC4)ccc32)cc1 -31.5%
O=C(CCN1CCN(c2ccccc2)CC1)NNC(=O)Cc1ccc(Br)cc1 -39.1%
Cc1ccc(F)cc1NC(=O)C1CC(=O)N(Cc2ccccc2)C1 (centres undefined) -33.4%
CC1(C)CC(NC(=O)C23CCC(C)(/C(=N/O)C2)C3(C)C)CC(C)(C)N1 (centres undefined) -32.9%
CCc1nc(Sc2nnnn2-c2ccccc2)c2c3c(sc2n1)CCCC3 -34.7%
Cc1cc2oc(=O)cc(CN3CCCCC3)c2cc1C -38.5%
COc1ccccc1Cc1c(-c2ccc(C#N)cc2)nc2ccc(Br)cn12 -30.3%
NS(=O)(=O)c1ccc(CCNC(=O)c2cc([N+](=O)[O-])ccc2N2CCOCC2)cc1 -38.2%
CC(O)(c1cccc(F)c1)c1nc(-c2cncnc2)cs1 (centres undefined) -36.1%
COc1ccc(-c2cc(=O)n(CCC#N)[nH]2)cc1 -31.2%
CCSc1nc(N)c(C#N)c(-c2ccccc2Cl)c1C#N -30.9%
Cc1ccc2c(c1)C(=O)C(=O)N2Cc1ccccc1 -50%
Cc1ccc(-c2nnn(CC(=O)Nc3ccc(S(=O)(=O)N4CCC(C)CC4)cc3)n2)cc1 -34%
COc1ccc(-n2nc(C(=O)NCC(=O)Nc3cccc(NC(C)=O)c3)c3ccccc3c2=O)cc1 -35.3%
CC[C@]12C(=O)N(C)C[C@H]([C@@H]3C(=O)N(Cc4ccccc4)C(=O)[C@@H]31)N2C(=O)c1ccc(C(F)(F)F)cc1 -33.8%
OCCNc1ncnc2c1nnn2Cc1ccccc1Cl -41.7%
COc1ccc(-n2ncc3c(NCCCN4CCOCC4)ncnc32)cc1 -36.4%
Cc1nn(CCO)c2nc(-c3cccs3)cc(C(F)(F)F)c12 -39.1%
Cc1nc(SCC(=O)N2CCC(Cc3ccccc3)CC2)[nH]c(=O)c1C -48.2%
C[C@H](CO)N1C[C@H](C)[C@H](CN(C)S(=O)(=O)c2ccccc2)Oc2ccc(NC(=O)NC3CCCCC3)cc2CC1=O -39.8%
O=C(Cc1cc(=O)[nH]c(=O)[nH]1)NCCN1CCOCC1 -37.1%
CCOC(=O)c1c(C)oc2c1c(C(c1cccnc1)N1CCOCC1)c(O)c1ccccc12 (centres undefined) -49.6%
CN(CCO)c1ccc([N+](=O)[O-])cc1C(=O)O -35.8%
O=C(NCc1ccccc1)c1ccc(C(=O)N(C2CCCCC2)C2CCCCC2)cc1 -43.6%
O=S(=O)(c1ccccc1)N1CCN(Cc2cccc(Br)c2)CC1 -37%
CC1CN(c2ccc([N+](=O)[O-])c(NCCOc3ccccc3)c2)CC(C)N1 (centres undefined) -42.6%

Arranged by formula weight (rising): part of the list above
Max response, negative = inhibition, inconclusive:
CC1(C)CC(NC(=O)C23CCC(C)(/C(=N/O)C2)C3(C)C)CC(C)(C)N1 (centres undefined) -32.9%
Cc1nc(SCC(=O)N2CCC(Cc3ccccc3)CC2)[nH]c(=O)c1C -48.2%
CCc1nc(Sc2nnnn2-c2ccccc2)c2c3c(sc2n1)CCCC3 -34.7%

Next part.

Max response, negative = inhibition, inactive:
O=C(Cn1nc(-c2ccccc2)ccc1=O)NCCN1CCN(Cc2ccccc2)CC1 -9.88%
CC1=NN(C(N)=S)C(=O)C1N=Nc1ccccc1[N+](=O)[O-] (centres undefined) 7.11%
COc1ccc(NS(=O)(=O)c2cccc(C(=O)NCc3ccccc3CN3CCOCC3)c2)cc1 3.19%
CCCCCCN1C[C@@H](n2cc(COC(=O)c3ccccc3)nn2)[C@H](O)C[C@@H]1c1ccc(Cl)cc1 6.95%
COc1cccc(-c2nc(CS(=O)(=O)CC(=O)NCCCN3CCOCC3)c(C)o2)c1 15%
COc1ccc(/C=C/CN2CCC(CO)(Cc3ccccc3Cl)CC2)cc1 9.29%
CCn1c(CNc2ccc(Cl)cc2)nnc1SCC(=O)OC1CCCCC1 -29.3%
Cc1ccc(S(=O)(=O)CC(=O)Nc2ncc([N+](=O)[O-])s2)cc1 -3.35%
COC(=O)C1=C(C)NC(C)=C(C(=O)OC)C1C(=O)OCC(=O)c1ccc(Br)cc1 13%
COc1cc(/C=N/NC(=O)/C(=C/c2ccccc2)CCO)ccc1O 0.881%
Cc1ccc(S(=O)(=O)NC(=O)Nc2cccc(S(=O)(=O)N(C)C)c2)cc1 12.5%
CC(C)(C)c1ccc(C(=O)Nc2ccc(Cl)cc2)cc1 -16.8%
O=C(Nc1ncccc1O)c1c(O)c2ccccc2[nH]c1=O 30%
